PubChem BioAssay AID504764 – Drosophila RNAi Screening Center, 2011
Screen: 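Knock-downs that raise or lower a Notch target reporter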 (primary screen). System: Drosophila Kc167 cells. Reagents: long dsRNA against Drosophila genes. Time to read-out: about 5 days (4 days dsRNA, then 24 h after transfection). Challenge: transfection of constitutively active membrane-tethered Notch lacking the extracellular domain, read 24 h later. Read-out: 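Firefly luciferase from an E(spl)m3 reporter with active Notch, plus control-promoter and uninduced reporter wells for normalisation; unnormalised counts, duplicate wells a and b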. Reading the numbers: induced reporter light, run 1, well a and induced reporter light, run 1, well b: higher = more light from the Notch target reporter with active Notch; control promoter light, run 1, well a and control promoter light, run 1, well b: higher = more light from the viral control promoter (cell number, transfection, viability); uninduced reporter light, run 1, well a: higher = more light from the Notch target reporter without active Notch. Rule for the call: 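Wells with low control signal or poorly matching duplicates excluded; duplicates averaged; per source plate, z beyond ±2 for induced/control log2 ratio or beyond ±1.8 for induced/uninduced marks a hit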. Meaning of the calls: active = modifier hit (raised or lowered Notch signal); inactive = not a hit.
In all, the deposit lists about 22,000 reagents; this is an unselected part of those that have a named target and a result. Of all reagents, 403 (1.9%) were called active. 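Unnormalised raw counts per well; ratio z-scores behind the hit calls and whether each hit raises or lowers signal are not deposited.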 Reagents against one gene are numbered here. Names joined by + are all predicted targets of the reagent. No sequences are given here. Not stated in the record: the amount of reagent.

| target gene | reagent | induced reporter light, run 1, well a | induced reporter light, run 1, well b | control promoter light, run 1, well a | control promoter light, run 1, well b | uninduced reporter light, run 1, well a | activity call |
| --- | --- | --- | --- | --- | --- | --- | --- |
| AGO2 | 1 | 1.38e5 | 1.84e5 | 2.25e5 | 1.83e5 | 12360 | inactive |
| AGO2 | 2 | 1.19e5 | 1.27e5 | 87460 | 1.09e5 | 12225 | inactive |
| CheB38c | 1 | 48375 | 38595 | 52440 | 39825 | 2545 | inactive |
| CG1701 | 1 | 2.30e5 | 2.27e5 | 2.69e5 | 2.46e5 | 17235 | inactive |
| Myo28B1 | 1 | 1.55e5 | 1.56e5 | 1.68e5 | 2.06e5 | 10860 | inactive |
| Ns1 | 1 | 1.22e5 | 1.17e5 | 1.40e5 | 1.35e5 | 7450 | inactive |
| Pex11ab | 1 | 31155 | 39270 | 37310 | 52850 | 4700 | inactive |
| CG3191 | 1 | 1.56e5 | 2.17e5 | 2.11e5 | 2.34e5 | 13100 | inactive |
| CG10194 | 1 | 2.16e5 | 2.30e5 | 2.26e5 | 2.05e5 | 20070 | inactive |
| pb | 1 | 1.50e5 | 1.31e5 | 1.79e5 | 1.15e5 | 10795 | inactive |
| pb | 2 | 33620 | 29155 | 18325 | 16415 | 3090 | inactive |
| CG7953 | 1 | 2.00e5 | 2.24e5 | 2.07e5 | 2.07e5 | 16485 | inactive |
| flr | 1 | 1.10e5 | 1.11e5 | 98770 | 56525 | 10982 | inactive |
| ACXE | 1 | 1.60e5 | 1.56e5 | 1.46e5 | 1.60e5 | 12210 | inactive |
| CG1440 | 1 | 1.56e5 | 1.76e5 | 2.70e5 | 2.49e5 | 12910 | inactive |
| CG8654 | 1 | 90165 | 1.15e5 | 1.72e5 | 1.53e5 | 10342 | inactive |
| tex | 1 | 28820 | 42965 | 31095 | 33280 | 2875 | inactive |
| Pu | 1 | 1.71e5 | 1.65e5 | 1.40e5 | 1.34e5 | 10165 | inactive |
| Akr1B | 1 | 1.22e5 | 1.23e5 | 1.02e5 | 50365 | 8270 | inactive |
| CG18404 | 1 | 1.18e5 | 1.24e5 | 1.62e5 | 1.79e5 | 10480 | inactive |
| S6k | 1 | 2.42e5 | 2.79e5 | 3.06e5 | 2.92e5 | 11510 | inactive |
| Egfrap | 1 | 2.29e5 | 2.21e5 | 2.53e5 | 2.80e5 | 13110 | inactive |
| Egfrap | 2 | 1.35e5 | 1.44e5 | 1.94e5 | 2.08e5 | 6620 | inactive |
| Art9 | 1 | 2.62e5 | 2.31e5 | 2.07e5 | 2.09e5 | 20380 | inactive |
| Axs | 1 | 1.00e5 | 1.03e5 | 1.01e5 | 92100 | 11385 | inactive |
| CG1628 | 1 | 1.82e5 | 1.36e5 | 1.86e5 | 1.98e5 | 9855 | inactive |
| CG5746 | 1 | 1.72e5 | 1.50e5 | 2.14e5 | 2.35e5 | 14070 | inactive |
| Srg1 | 1 | 1.84e5 | 1.36e5 | 2.14e5 | 1.98e5 | 12765 | inactive |
| Eip75B | 1 | 20860 | 17865 | 16750 | 15520 | 8775 | inactive |
| CG1468 | 1 | 1.33e5 | 1.52e5 | 1.52e5 | 1.55e5 | 9728 | inactive |
| l(2)37Cb | 1 | 1.43e5 | 1.73e5 | 1.54e5 | 1.51e5 | 9515 | inactive |
| CG9853 | 1 | 94660 | 1.29e5 | 79270 | 65535 | 8110 | inactive |
| CG17778 | 1 | 1.59e5 | 1.41e5 | 3.04e5 | 3.45e5 | 11350 | inactive |
| CG4592 | 1 | 2.28e5 | 2.07e5 | 1.67e5 | 1.39e5 | 16400 | inactive |
| twe | 1 | 1.60e5 | 1.61e5 | 1.67e5 | 1.57e5 | 14195 | inactive |
| mthl6 | 1 | 1.19e5 | 1.05e5 | 1.27e5 | 96800 | 6170 | inactive |
| Cyt-c1 | 1 | 1.24e5 | 1.20e5 | 1.02e5 | 47620 | 9910 | inactive |
| qkr58E-2 | 1 | 1.65e5 | 1.81e5 | 1.57e5 | 1.66e5 | 13388 | inactive |
| CG17784 | 1 | 1.42e5 | 1.30e5 | 1.41e5 | 1.64e5 | 10305 | inactive |
| mbm + CG11555 | 1 | 1.31e5 | 1.10e5 | 79900 | 63340 | 9165 | inactive |
| CG3565 | 1 | 67555 | 81910 | 50265 | 60960 | 5535 | inactive |
| RpL10 | 1 | 21020 | 24250 | 24295 | 19942 | 1575 | inactive |
| CG10581 | 1 | 1.85e5 | 1.06e5 | 1.24e5 | 1.10e5 | 11790 | inactive |
| CG3819 | 1 | 72075 | 73295 | 73890 | 63360 | 5190 | inactive |
| reb | 1 | 98715 | 99660 | 1.24e5 | 1.45e5 | 10528 | inactive |
| CG7550 | 1 | 2.55e5 | 1.98e5 | 2.44e5 | 2.17e5 | 8190 | inactive |
| CG34426 | 1 | 2.56e5 | 2.17e5 | 2.55e5 | 2.30e5 | 15755 | inactive |
| temp | 1 | 1.93e5 | 1.67e5 | 2.01e5 | 2.50e5 | 12810 | inactive |
| Ifrd1 | 1 | 3.16e5 | 2.21e5 | 3.31e5 | 2.82e5 | 14590 | inactive |
| Ifrd1 | 2 | 1.76e5 | 2.14e5 | 2.61e5 | 2.56e5 | 12625 | inactive |
| smal | 1 | 1.81e5 | 1.44e5 | 1.87e5 | 1.30e5 | 9255 | inactive |
| smal | 2 | 2.21e5 | 1.77e5 | 1.87e5 | 1.44e5 | 12595 | inactive |
| smal | 3 | 72490 | 56260 | 64290 | 60275 | 3865 | inactive |
| smal | 4 | 1.67e5 | 1.26e5 | 1.55e5 | 1.76e5 | 10370 | inactive |
| CG12662 | 1 | 1.49e5 | 2.13e5 | 2.64e5 | 3.34e5 | 12505 | inactive |
| wol | 1 | 70200 | 96585 | 58685 | 67760 | 5455 | inactive |
| Atg3 | 1 | 1.28e5 | 1.20e5 | 75790 | 92330 | 9050 | inactive |
| HisT | 1 | 50710 | 72975 | 78040 | 64995 | 2940 | inactive |
| HisT | 2 | 51570 | 55505 | 69080 | 81295 | 2050 | inactive |
| HisT | 3 | 1.92e5 | 1.80e5 | 1.31e5 | 1.40e5 | 11535 | inactive |
| Idh3a | 1 | 76930 | 80780 | 1.03e5 | 1.13e5 | 10055 | inactive |
| CG18336 | 1 | 1.05e5 | 1.31e5 | 1.46e5 | 1.55e5 | 11705 | inactive |
| CG13999 | 1 | 1.62e5 | 1.40e5 | 1.72e5 | 1.67e5 | 11115 | inactive |
| CG42818 + Ca-Ma2d | 1 | 1.31e5 | 1.53e5 | 1.33e5 | 1.43e5 | 11350 | inactive |

Taken from above.
CG10194, activity call → inactive
Result of wol in “control promoter light, run 1, well b”: 67760
flr, control promoter light, run 1, well b: 56525
Result for Cyt-c1 in “control promoter light, run 1, well b”: 47620
Under “control promoter light, run 1, well a”, Ifrd1 #1 shows 3.31e5
